The values below come from PubChem BioAssay AID488835 (Broad Institute, 2010).

The chains behind the UniProt entries cited, without tags or fusion partners. Where a name states a change or a piece, a line headed by the entry shows the natural chain unless it says otherwise.
UniProt Q9H3R0: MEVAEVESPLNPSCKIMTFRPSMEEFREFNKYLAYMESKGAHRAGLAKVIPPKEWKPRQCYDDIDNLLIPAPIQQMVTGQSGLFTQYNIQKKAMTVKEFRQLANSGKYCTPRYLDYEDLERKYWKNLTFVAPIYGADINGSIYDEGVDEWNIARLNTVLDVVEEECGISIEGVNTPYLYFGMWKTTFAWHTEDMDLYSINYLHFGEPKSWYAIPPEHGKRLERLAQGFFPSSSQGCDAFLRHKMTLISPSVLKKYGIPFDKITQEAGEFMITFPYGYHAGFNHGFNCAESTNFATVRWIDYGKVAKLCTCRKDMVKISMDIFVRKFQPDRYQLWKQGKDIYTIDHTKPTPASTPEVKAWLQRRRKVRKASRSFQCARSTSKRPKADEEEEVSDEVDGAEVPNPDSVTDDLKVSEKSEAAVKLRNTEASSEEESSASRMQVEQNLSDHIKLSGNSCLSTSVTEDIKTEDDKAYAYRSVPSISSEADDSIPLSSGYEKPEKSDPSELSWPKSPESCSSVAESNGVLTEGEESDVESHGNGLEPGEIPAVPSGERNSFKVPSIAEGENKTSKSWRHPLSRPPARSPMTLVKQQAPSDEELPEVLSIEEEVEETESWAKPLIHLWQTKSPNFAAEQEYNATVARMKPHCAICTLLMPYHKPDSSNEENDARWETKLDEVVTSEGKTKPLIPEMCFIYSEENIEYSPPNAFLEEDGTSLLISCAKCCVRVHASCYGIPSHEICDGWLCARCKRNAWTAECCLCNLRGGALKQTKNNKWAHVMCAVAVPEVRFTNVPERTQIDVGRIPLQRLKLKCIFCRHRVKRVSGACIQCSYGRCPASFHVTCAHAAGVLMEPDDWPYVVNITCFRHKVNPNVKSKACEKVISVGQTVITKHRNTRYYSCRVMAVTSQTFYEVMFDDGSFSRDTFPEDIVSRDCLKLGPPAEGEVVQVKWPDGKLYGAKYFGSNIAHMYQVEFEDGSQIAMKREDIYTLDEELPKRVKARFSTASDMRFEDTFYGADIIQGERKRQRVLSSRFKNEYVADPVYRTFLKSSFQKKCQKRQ

The whole screen tested about 1,400 compounds, of which about 140 (10%) were called active.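 How the source made its calls: active means Half-maximal inhibitory dose from the fit at or below ten times the top valid tested dose; inconclusive means Invalid fit, or flat curve showing 30 to 70% inhibition; inactive means the rest.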 The list shows a part of the results, in another mix than the full data. Measured potencies and affinities stand elsewhere.

The target in the assay is Lysine-specific demethylase 4C (Homo sapiens) (UniProt Q9H3R0). Nature of the assay: inhibition of JMJD2C H3K9me3 demethylation – biochemical, DELFIA europium, cherry-picked samples, dose response (AID 488835).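 Further: signal is the H3K9me2 demethylation product detected by a dimethyl-specific antibody.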 The following applies: GST-JMJD2C(1-420); at 6 µM (top of the series) unless noted.
`Cc1cccc(N2C(=O)NC(=O)/C(=C/c3ccc(N4CCOCC4)cc3)C2=O)c1`: the activity change, negative = inhibition was inactive: -0.79%.

For `CN1CCN(c2ccc(C=O)cc2)CC1`, the activity change, negative = inhibition was inactive: 3.33%.

Take `C=CCC1C(=O)NC(=S)NC1=O`: the activity change, negative = inhibition was inactive: -4.69%.

As for `CN(C)[C@@H]1C(=O)C(C(N)=O)=C(O)[C@@]2(O)C(=O)C3=C(O)c4c(O)cccc4[C@@](C)(O)C3C[C@@H]12` (stereo not given in full), the activity change, negative = inhibition was inactive: 1.41%.

For `COc1cccc(N2C(=O)NC(=O)/C(=C/c3ccc4c(c3)Cc3ccccc3-4)C2=O)c1`, the activity change, negative = inhibition was inactive: -11.6%.

Consider `O=C(c1cccs1)N1C2CCC1CC(O)(c1cccnc1)C2` (stereo not given), for which the activity change, negative = inhibition is inactive: 2.1%.

Regarding `Cc1sc2c(c1C)C(c1ccc(C(C)(C)C)cc1)=NCC(=O)N2CC(=O)Nc1nccs1`, the activity change, negative = inhibition is inactive: 1.88%.

Consider `CC(C)(C)[C@]1(O)C[C@@H]2OC(=O)C[C@@]23C(=O)O[C@@H]2OC(=O)[C@@H](O)C213` (stereo not given in full), for which the activity change, negative = inhibition is inactive: 2.46% [at 1.6 µM].

Regarding `CCCCCSc1cc(O)c(C(CNC)C(C)C)cc1OC` (stereo not given), the activity change, negative = inhibition is inactive: 8.89%.

Take `C[C@@H]1CCC2[C@@H](C)C(=O)O[C@@H]3OC4(C)CCC1[C@@]23OO4` (stereo not given in full): the activity change, negative = inhibition was inactive: -3.3%.

With `CCN(CC)c1ccc(/C=C2\C(=O)NC(=O)N(CC3CCCO3)C2=O)cc1` (stereo not given), the activity change, negative = inhibition is inactive: -4.96%.

On to `CN(C)c1ccc(/C=C2\C(=O)NC(=O)N(CCc3ccc(F)cc3)C2=O)cc1`, for which the activity change, negative = inhibition was inactive: -9%.

Consider `COCc1cc(OC(=O)N(C)C)nc2c1c(C)nn2C`, for which the activity change, negative = inhibition is inactive: 1.34% [at 1.6 µM].

On to `Cc1ccc2[nH]c(=S)n(-c3cccnc3)c(=O)c2c1`, for which the activity change, negative = inhibition was inactive: 1.94% [at 1.6 µM].

For `N/C(=N\[N+](=O)[O-])N1CCN(C(=O)c2ccccc2)CC1`, the activity change, negative = inhibition is inactive: 4.19%.

Turning to `CC(=NCc1ccc(F)cc1)c1c(O)n(C)c(=O)n(C)c1=O`, the activity change, negative = inhibition was inactive: -2.27%.

`Cc1[nH]c2ccc(OC(F)(F)F)cc2c1CCNCc1cccc([N+](=O)[O-])c1`: the activity change, negative = inhibition was inactive: -2.04%.

Take `O=C1NC(=S)NC(=O)C1C1CCCCC1`: the activity change, negative = inhibition is inactive: -7.35%.

On to `O=C1NC(=S)N(C2CC2)C(=O)/C1=C/c1ccc2c(c1)CCN2CCCCl`, for which the activity change, negative = inhibition is inactive: -6.44%.

Regarding `O=P(OCC(F)(F)C(F)F)(N1CCCCC1)N1CCCCC1`, the activity change, negative = inhibition was inactive: 20.6%.

As to `CCN1C(=O)NC(=O)/C(=C\c2cn(CC(=O)N3CCCCC3)c3ccccc23)C1=O`, the activity change, negative = inhibition was inactive: 0.399%.

For the compound `COc1cc(Br)cc(CN2CCN(C)CC2)c1O`, the activity change, negative = inhibition was inactive: 3.64%.

Regarding `Cc1ccc2nc3c(cc2c1)CC1(C(=O)N(C)C(=O)N(C)C1=O)C1CCCCN31` (stereo not given), the activity change, negative = inhibition was inactive: -3.67%.

In the case of `CN1CCN(c2nc3ccccn3c(=O)c2C=C2C(=O)N(C)C(=O)N(C)C2=O)CC1`, the activity change, negative = inhibition is inactive: -6.12%.

Turning to `CCN1CCN(c2ccc([N+](=O)[O-])cc2C=C2C(=O)NC(=O)NC2=O)CC1`, the activity change, negative = inhibition was inactive: -3.77%.

`COC(=O)C1=C(c2ccc(OCc3ccccc3)cc2)C[C@@H]2CC[C@H]1N2C(=O)NCc1ccc([N+](=O)[O-])cc1`: the activity change, negative = inhibition is inactive: 4.6%.

In the case of `c1ccc2c3c(ccc2c1)OCC1CONC31` (stereo not given), the activity change, negative = inhibition is inactive: 6.65%.

Take `CC1C(c2cccs2)=[N+]([O-])C(C)(C(=O)c2ccc(Cl)cc2)N1O` (stereo not given): the activity change, negative = inhibition is inactive: 0.0602%.

For the compound `O=C1NC(=O)N(Cc2ccccc2)C(=O)/C1=C/C=C/c1ccco1`, the activity change, negative = inhibition was inactive: -4.71%.

With `COc1ccc(N2C(=O)NC(=O)/C(=C/c3cccc(OC(=O)c4cccs4)c3)C2=O)cc1Cl`, the activity change, negative = inhibition was inactive: -1.93%.

Regarding `CCOC(=O)/C(=N\Nc1ccccc1)N1CC1`, the activity change, negative = inhibition was inactive: 5.53%.

Turning to `CN(C)c1ccc(/C=C2/C(=O)NC(=O)N(Cc3ccco3)C2=O)cc1`, the activity change, negative = inhibition is inactive: -4.33%.

With `CCC(=NCC1CCCO1)c1c(O)[nH]c(=O)[nH]c1=O` (stereo not given), the activity change, negative = inhibition was inactive: 0.744%.

On to `C=CCn1c(O)c(/C(C)=N/NC(=S)Nc2ccccc2)c(=O)[nH]c1=O`, for which the activity change, negative = inhibition was inactive: 0.744%.

Take `CCc1ccc(N2C(=O)NC(=O)/C(=C\c3cc(C)n(-c4cc(C(=O)O)cc(C(=O)O)c4)c3C)C2=O)cc1`: the activity change, negative = inhibition was inactive: -5.26%.
